Here are results for 54 sequences from article PMC7819943, “Rice protein-binding microarrays: a tool to detect cis-acting elements near promoter regions in rice”.

Protein sequences, listed by entry. Tags and fused reporters are not part of them.
UniProt Q0JBA9, entry or part of it: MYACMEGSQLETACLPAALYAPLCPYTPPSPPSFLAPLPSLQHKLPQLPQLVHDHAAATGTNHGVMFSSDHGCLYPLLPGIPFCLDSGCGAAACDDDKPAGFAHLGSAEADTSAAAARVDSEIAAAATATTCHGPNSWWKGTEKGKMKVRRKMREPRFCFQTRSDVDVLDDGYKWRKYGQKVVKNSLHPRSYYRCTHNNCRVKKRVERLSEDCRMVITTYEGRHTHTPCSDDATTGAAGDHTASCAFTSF

The other results are listed elsewhere or left out.

The experiment has as its target OsWRKY34 (Oryza sativa, UniProt Q0JBA9 1-250). Put plainly: protein-binding microarray (RPBM); PBS, 2% BSA, 51.3 ng/ul salmon testes DNA, 50 uM zinc acetate, 200 nM TF, 25 C, 1 h; high values mean tight binding. Particulars: protein: recombinant; tags: N-terminal polyhistidine and DsRed monomer fusion (pET32a); label: CyDye5-dUTP incorporated in the synthesized complementary strand; 3' TTTTT single-stranded linker to array surface; dsDNA, one strand shown. An outline of the steps:
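Ni–NTA purification followed expression in E. coli BL21-CodonPlus of transcription factors fused N-terminally to a polyhistidine tag and DsRed. At 200 nM in PBS with 2% BSA, salmon testes DNA and 50 µM zinc acetate, the protein was incubated for 1 h at 25 °C with a custom Agilent array that had been primer-extended with Cy5-dUTP and blocked with 2% BSA. After washing, the array was read on an Axon 4000B scanner. The binding signal is per-feature fluorescence intensity in arbitrary units.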
For “GCATATCCAATCATCACCTCTCATATCATTTGTACAATATCGGAGTCACCTAGTGCAG”, the binding signal was 10200 fluorescence intensity (a.u.).

On to “GACCATTCTGTTTCGTACAATAGTATTATCTTTTTTTTATCGGAGTCACCTAGTGCAG”, for which the binding signal is 12600 fluorescence intensity (a.u.).

Turning to “GGCCCTAACCCCACCGACCACCCGCGGCCCTCGTCTTCCTCGGAGTCACCTAGTGCAG”, the binding signal was 10200 fluorescence intensity (a.u.).

On to “GGCATATCTGAACTGAGTTCATATCAAGCTTTCAATCTCTCGGAGTCACCTAGTGCAG”, for which the binding signal was 8300 fluorescence intensity (a.u.).

As for “TCAATTATTCAGGGTTTCTTCTGGTTCTTGTCTCGCCATGCGGAGTCACCTAGTGCAG”, the binding signal was 8630 fluorescence intensity (a.u.).

With “CACTATAGATATATGGATGTGTGTTGGTCTTTGATGTAGTCGGAGTCACCTAGTGCAG”, the binding signal was 8160 fluorescence intensity (a.u.).

For the sequence “TATATAGCTAGGTACCTCTTCAGGGTTTCTTGGGTTTTGACGGAGTCACCTAGTGCAG”, the binding signal was 11300 fluorescence intensity (a.u.).

Turning to “TATGCTGTTGTATTTTGTTTTTTTATCTCAACTAATATTTCGGAGTCACCTAGTGCAG”, the binding signal was 8480 fluorescence intensity (a.u.).

Consider “ATCCGATCTCCGGCAGTTTCCCCAAATTTTGTTCGAATATCGGAGTCACCTAGTGCAG”, for which the binding signal is 8810 fluorescence intensity (a.u.).

With “CTCCCACTGTGACAGTCTCGTCACCGCACCACCTCACCTTCGGAGTCACCTAGTGCAG”, the binding signal was 8420 fluorescence intensity (a.u.).

With “GCGGTTTCTAGGTAAGTTATGAAATTAGTTTTGTCATTCGCGGAGTCACCTAGTGCAG”, the binding signal was 9590 fluorescence intensity (a.u.).

As for “ACATTGTTCAGTCCACGTTTGCTTCGGTTCGCTTTTCCGTCGGAGTCACCTAGTGCAG”, the binding signal is 11300 fluorescence intensity (a.u.).

For the sequence “GGGTAGGGGTGGTAATTGGGAGGGAATTCCTTCTTTACTTCGGAGTCACCTAGTGCAG”, the binding signal was 13100 fluorescence intensity (a.u.).

In the case of “ACTTTGTCCACGCCATCCTCCAAGTCTCCAAACCTACACACGGAGTCACCTAGTGCAG”, the binding signal was 9600 fluorescence intensity (a.u.).

Consider “CAAAAACATTCTCAACCTTTTTTTCATTTAGTTAGTACAACGGAGTCACCTAGTGCAG”, for which the binding signal is 8970 fluorescence intensity (a.u.).

As to “GCTTGCCAGCGCGCTACTCCATCCTCTTGCATAAATAACGCGGAGTCACCTAGTGCAG”, the binding signal is 10700 fluorescence intensity (a.u.).

In the case of “GGCGTTCTTCTTGATGTCTCCTTTCTGTCCTTTGGATGGTCGGAGTCACCTAGTGCAG”, the binding signal is 10200 fluorescence intensity (a.u.).

Consider “CATCACCGTCCTCTGCGCGCATTGATATTGTGTCGTTGGACGGAGTCACCTAGTGCAG”, for which the binding signal was 9540 fluorescence intensity (a.u.).

For the sequence “CCCGTTGACCCAAATTTTCGTTCTCCTCACCGAGTATAGTCGGAGTCACCTAGTGCAG”, the binding signal was 17200 fluorescence intensity (a.u.).

“TCTTTGTGTCAAATCGGACTTTCTTTTTTCTTGTTTTTATCGGAGTCACCTAGTGCAG”: the binding signal is 10400 fluorescence intensity (a.u.).

In the case of “ATACCACCATGGAAGCTCATCTCGCTCCGTGTGCCTAGATCGGAGTCACCTAGTGCAG”, the binding signal is 8270 fluorescence intensity (a.u.).

For “GCCCAGCCCAGGCCCACCTTATGTTTTGTTGCATCTCTACCGGAGTCACCTAGTGCAG”, the binding signal was 10700 fluorescence intensity (a.u.).

Consider “CCCTCCCTGGCCGTCGTGCCCGCCGCTGCTCGCCTTCGGCCGGAGTCACCTAGTGCAG”, for which the binding signal is 10100 fluorescence intensity (a.u.).

In the case of “GCACACCGCTTTCATGGGCCACACATGCCATATCCTAATTCGGAGTCACCTAGTGCAG”, the binding signal was 10700 fluorescence intensity (a.u.).

As to “TAAAGATGTCTTTTGTTGGGTGGGAAATCATTTTCATTTCCGGAGTCACCTAGTGCAG”, the binding signal is 13100 fluorescence intensity (a.u.).

As for “CCTTATTTTTGTTATGATAACTAATATGTTCAGTGGTTTTCGGAGTCACCTAGTGCAG”, the binding signal was 8510 fluorescence intensity (a.u.).

Regarding “TGGGTGGTCAAGATTTATGATATTGCGGTTAAAGAATGTGCGGAGTCACCTAGTGCAG”, the binding signal was 9290 fluorescence intensity (a.u.).

On to “CGTTTTTGTGTCTTTCATTTGAGGAGGAACTGCGATTCTTCGGAGTCACCTAGTGCAG”, for which the binding signal was 9400 fluorescence intensity (a.u.).

Take “GGAAGATCCAGGCGACGCACAGCACCGGCATCCGGATCCGCGGAGTCACCTAGTGCAG”: the binding signal is 9950 fluorescence intensity (a.u.).

Consider “TCCACGTACGTACGCCCGACGCCCACCGGTCCGCGTCACGCGGAGTCACCTAGTGCAG”, for which the binding signal is 8120 fluorescence intensity (a.u.).

As for “CCACTCCATCCCGTGTGCCGCCCGCCTCAAAACCAACCGCCGGAGTCACCTAGTGCAG”, the binding signal was 9000 fluorescence intensity (a.u.).

As for “ATCTCATCCATCCATTTTCCAAATCAAGGGTACATATCAACGGAGTCACCTAGTGCAG”, the binding signal is 9580 fluorescence intensity (a.u.).

Take “CGGCGGGGATGAGGGAGAAGGGCGCGGGGCGACGGCGGCACGGAGTCACCTAGTGCAG”: the binding signal was 8090 fluorescence intensity (a.u.).

Turning to “AGTACTATTCAAAACAATTTTGCTAACGTATTTGTCTACACGGAGTCACCTAGTGCAG”, the binding signal was 8970 fluorescence intensity (a.u.).

On to “CTCAAAGTTGGCAACTCTCAAACTCGGTTTATCTCCTTGACGGAGTCACCTAGTGCAG”, for which the binding signal was 8530 fluorescence intensity (a.u.).

As for “TTTTTTGGCTTAATTACAGTTTTTTTGTGTGTTTTTTCCCCGGAGTCACCTAGTGCAG”, the binding signal was 10000 fluorescence intensity (a.u.).

Turning to “CGTCACTTTCTTTCGTTGTTGTTTTTCTCGATAGGCTAATCGGAGTCACCTAGTGCAG”, the binding signal is 8990 fluorescence intensity (a.u.).

Regarding “GCGGGGCGGTGACAACGACGGCGGTGCGGGGCGGTGGTGACGGAGTCACCTAGTGCAG”, the binding signal was 10300 fluorescence intensity (a.u.).

For the sequence “TGATTTGGTGAGCTCGAACCATCCGTAAGGTCACCCGTCTCGGAGTCACCTAGTGCAG”, the binding signal is 8830 fluorescence intensity (a.u.).

For “CCAGTGACTAACACCGACACAGTTCGCGCCAGGTTATAACCGGAGTCACCTAGTGCAG”, the binding signal is 8200 fluorescence intensity (a.u.).

As to “GTTTACCAACCACCTGCTCTTCTCGGCCAGTTCGCTGCGGCGGAGTCACCTAGTGCAG”, the binding signal is 8680 fluorescence intensity (a.u.).

For “AATGTTCTATCGTTTCTGTATTGTCGCTCAGATGAATCGGCGGAGTCACCTAGTGCAG”, the binding signal is 9390 fluorescence intensity (a.u.).

Turning to “CATCATCTCCTTCCTACTCGTACACGCTAGGCTTTGCCGCCGGAGTCACCTAGTGCAG”, the binding signal is 8250 fluorescence intensity (a.u.).

Take “AATTTTCTCAGTTGTGCATTTCATCGAACACCTTCCTATTCGGAGTCACCTAGTGCAG”: the binding signal was 10400 fluorescence intensity (a.u.).

Turning to “TTGTTGACCCATTTTTCCACTCGTCACCGTGTTTCTGCTGCGGAGTCACCTAGTGCAG”, the binding signal was 12700 fluorescence intensity (a.u.).

On to “CTAACCTGCCCGAGTTTGCCTGATTGCTTCTCTGTTCCCACGGAGTCACCTAGTGCAG”, for which the binding signal is 8930 fluorescence intensity (a.u.).

Take “ACCTCTAGGGAAGATAGATAGGAGGGGATGGGATATATTGCGGAGTCACCTAGTGCAG”: the binding signal is 8110 fluorescence intensity (a.u.).

Regarding “GGGGAGGGAGATCCATCTAACAGTTCTTTCTTTTTTTTTCCGGAGTCACCTAGTGCAG”, the binding signal was 10300 fluorescence intensity (a.u.).

As to “CATTTCATTTCCTACCGTTAATTTCATACTACTTGCGTCCCGGAGTCACCTAGTGCAG”, the binding signal was 10600 fluorescence intensity (a.u.).

With “GGGTAGATTCATCAACTCACTCTTACACCTACATTACTCACGGAGTCACCTAGTGCAG”, the binding signal is 11100 fluorescence intensity (a.u.).

Consider “TTCTCCACTATCACGACCGTTTGACCAAATCTAATGAGGTCGGAGTCACCTAGTGCAG”, for which the binding signal is 8180 fluorescence intensity (a.u.).

As to “CCTTTGCTACCTCACAGTTCCTTTTTTTTTTGCACGCGCGCGGAGTCACCTAGTGCAG”, the binding signal is 8490 fluorescence intensity (a.u.).

Regarding “CATCATACACTTAGCCATCATCCTATAATGTTCACCGATCCGGAGTCACCTAGTGCAG”, the binding signal is 8270 fluorescence intensity (a.u.).

For “CGATCGTCTCCACCTTTCTTGCTTGTGCCACCAGCTTTATCGGAGTCACCTAGTGCAG”, the binding signal is 9070 fluorescence intensity (a.u.).
